Reference: the supplement of paper PMC8728848
Some of the results follow.

How the values were obtained:
Test in all cases: glycan array binding signal (z-score within array); higher = stronger binding
Conditions in all cases: glycan notation: IUPAC condensed, linker removed
[1] = biological target: GlcNAc(a1-4)Gal(b1-3)GlcNAc
How it was run: (§1)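 Arrays were curated from the Consortium for Functional Glycomics database, 3228 in total, and kept only where the protein sequence was available. Binding is expressed as a within-array Z-score. This score was averaged across arrays of the same protein sequence at different concentrations or buffers and across linkers, and negative values can be read as non-binding.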

[2] = biological target: GlcNAc(a1-4)Gal(b1-4)GalNAc
How it was run: as §1

[3] = biological target: GlcNAc(a1-4)Gal(b1-4)GlcNAc
How it was run: as §1

[4] = biological target: GlcNAc(a1-4)Gal(b1-4)GlcNAc(b1-3)Gal(b1-4)Glc
How it was run: as §1

[5] = biological target: GlcNAc(a1-4)Gal(b1-4)GlcNAc(b1-3)Gal(b1-4)GlcNAc
How it was run: as §1

[6] = biological target: GlcNAc(a1-4)Gal(b1-4)GlcNAc(b1-3)Gal(b1-4)GlcNAc(b1-3)Gal(b1-4)GlcNAc
How it was run: as §1

[7] = biological target: GlcNAc(a1-4)Gal(b1-4)GlcNAc(b1-3)Gal(b1-4)[Fuc(a1-3)]GlcNAc(b1-3)Gal(b1-4)[Fuc(a1-3)]GlcNAc
How it was run: as §1

[8] = biological target: GlcNAc(a1-6)Gal(b1-4)GlcNAc
How it was run: as §1

[9] = biological target: GlcNAc(b1-2)Gal(b1-3)GalNAc
How it was run: as §1

[10] = biological target: GlcNAc(b1-2)Man(a1-3)[GlcNAc(b1-2)Man(a1-6)]Man(b1-4)GlcNAc(b1-4)GlcNAc
How it was run: as §1

[11] = biological target: GlcNAc(b1-2)Man(a1-3)[GlcNAc(b1-2)Man(a1-6)]Man(b1-4)GlcNAc(b1-4)[Fuc(a1-6)]GlcNAc
How it was run: as §1

[12] = biological target: GlcNAc(b1-2)Man(a1-3)[GlcNAc(b1-4)][GlcNAc(b1-2)Man(a1-6)]Man(b1-4)GlcNAc(b1-4)GlcNAc
How it was run: as §1

[13] = biological target: GlcNAc(b1-2)Man(a1-3)[GlcNAc(b1-4)][GlcNAc(b1-2)Man(a1-6)]Man(b1-4)GlcNAc(b1-4)[Fuc(a1-6)]GlcNAc
How it was run: as §1

[14] = biological target: GlcNAc(b1-2)[GlcNAc(b1-4)]Man(a1-3)[GlcNAc(b1-2)Man(a1-6)]Man(b1-4)GlcNAc(b1-4)GlcNAc
How it was run: as §1

[15] = biological target: GlcNAc(b1-2)[GlcNAc(b1-4)]Man(a1-3)[GlcNAc(b1-4)][GlcNAc(b1-2)Man(a1-6)]Man(b1-4)GlcNAc(b1-4)GlcNAc
How it was run: as §1

[16] = biological target: GlcNAc(b1-2)[GlcNAc(b1-4)]Man(a1-3)[GlcNAc(b1-4)][GlcNAc(b1-2)[GlcNAc(b1-6)]Man(a1-6)]Man(b1-4)GlcNAc(b1-4)GlcNAc
How it was run: as §1

[17] = biological target: GlcNAc(b1-2)[GlcNAc(b1-4)]Man(a1-3)[GlcNAc(b1-4)][GlcNAc(b1-2)[GlcNAc(b1-6)]Man(a1-6)]Man(b1-4)GlcNAc(b1-4)[Fuc(a1-6)]GlcNAc
How it was run: as §1

[18] = biological target: GlcNAc(b1-2)[GlcNAc(b1-6)]Man(a1-6)[GlcNAc(b1-2)Man(a1-3)]Man(b1-4)GlcNAc(b1-4)GlcNAc
How it was run: as §1

[19] = biological target: GlcNAc(b1-2)[GlcNAc(b1-6)]Man(a1-6)[GlcNAc(b1-2)Man(a1-3)]Man(b1-4)GlcNAc(b1-4)[Fuc(a1-6)]GlcNAc
How it was run: as §1

[20] = biological target: GlcNAc(b1-2)[GlcNAc(b1-6)]Man(a1-6)[GlcNAc(b1-4)][GlcNAc(b1-2)Man(a1-3)]Man(b1-4)GlcNAc(b1-4)GlcNAc
How it was run: as §1

GlcNAc(b1-3)Fuc = biological target: GlcNAc(b1-3)Fuc
How it was run: as §1

GlcNAc(b1-3)Gal = biological target: GlcNAc(b1-3)Gal
How it was run: as §1

[21] = biological target: GlcNAc(b1-3)Gal(b1-3)GalNAc
How it was run: as §1

GlcNAc(b1-3)Gal(b1-4)Glc = biological target: GlcNAc(b1-3)Gal(b1-4)Glc
How it was run: as §1

[22] = biological target: GlcNAc(b1-3)Gal(b1-4)GlcNAc
How it was run: as §1

[23] = biological target: GlcNAc(b1-3)Gal(b1-4)GlcNAc(b1-2)Man(a1-3)[GlcNAc(b1-3)Gal(b1-4)GlcNAc(b1-2)Man(a1-6)]Man(b1-4)GlcNAc(b1-4)GlcNAc
How it was run: as §1

[24] = biological target: GlcNAc(b1-3)Gal(b1-4)GlcNAc(b1-2)Man(a1-3)[GlcNAc(b1-3)Gal(b1-4)GlcNAc(b1-2)Man(a1-6)]Man(b1-4)GlcNAc(b1-4)[Fuc(a1-6)]GlcNAc
How it was run: as §1

[25] = biological target: GlcNAc(b1-3)Gal(b1-4)GlcNAc(b1-2)[GlcNAc(b1-3)Gal(b1-4)GlcNAc(b1-6)]Man(a1-6)[GlcNAc(b1-3)Gal(b1-4)GlcNAc(b1-2)Man(a1-3)]Man(b1-4)GlcNAc(b1-4)GlcNAc
How it was run: as §1

[26] = biological target: GlcNAc(b1-3)Gal(b1-4)GlcNAc(b1-3)Gal(b1-4)GlcNAc
How it was run: as §1

[27] = biological target: GlcNAc(b1-3)Gal(b1-4)GlcNAc(b1-3)Gal(b1-4)GlcNAc(b1-2)Man(a1-3)[GlcNAc(b1-3)Gal(b1-4)GlcNAc(b1-3)Gal(b1-4)GlcNAc(b1-2)Man(a1-6)]Man(b1-4)GlcNAc(b1-4)GlcNAc
How it was run: as §1

[28] = biological target: GlcNAc(b1-3)Gal(b1-4)GlcNAc(b1-3)Gal(b1-4)GlcNAc(b1-2)Man(a1-3)[GlcNAc(b1-3)Gal(b1-4)GlcNAc(b1-3)Gal(b1-4)GlcNAc(b1-2)Man(a1-6)]Man(b1-4)GlcNAc(b1-4)[Fuc(a1-6)]GlcNAc
How it was run: as §1

[29] = biological target: GlcNAc(b1-3)Gal(b1-4)GlcNAc(b1-3)Gal(b1-4)GlcNAc(b1-2)[GlcNAc(b1-3)Gal(b1-4)GlcNAc(b1-3)Gal(b1-4)GlcNAc(b1-6)]Man(a1-6)[GlcNAc(b1-3)Gal(b1-4)GlcNAc(b1-3)Gal(b1-4)GlcNAc(b1-2)Man(a1-3)]Man(b1-4)GlcNAc(b1-4)[Fuc(a1-6)]GlcNAc
How it was run: as §1

[30] = biological target: GlcNAc(b1-3)Gal(b1-4)GlcNAc(b1-3)Gal(b1-4)GlcNAc(b1-3)Gal(b1-4)GlcNAc(b1-2)Man(a1-3)[GlcNAc(b1-3)Gal(b1-4)GlcNAc(b1-3)Gal(b1-4)GlcNAc(b1-3)Gal(b1-4)GlcNAc(b1-2)Man(a1-6)]Man(b1-4)GlcNAc(b1-4)GlcNAc
How it was run: as §1

[31] = biological target: GlcNAc(b1-3)Gal(b1-4)GlcNAc(b1-3)Gal(b1-4)GlcNAc(b1-3)Gal(b1-4)GlcNAc(b1-2)Man(a1-3)[GlcNAc(b1-3)Gal(b1-4)GlcNAc(b1-3)Gal(b1-4)GlcNAc(b1-3)Gal(b1-4)GlcNAc(b1-2)Man(a1-6)]Man(b1-4)GlcNAc(b1-4)[Fuc(a1-6)]GlcNAc
How it was run: as §1

[32] = biological target: GlcNAc(b1-3)Gal(b1-4)GlcNAc(b1-3)Gal(b1-4)GlcNAc(b1-3)Gal(b1-4)GlcNAc(b1-2)[GlcNAc(b1-3)Gal(b1-4)GlcNAc(b1-3)Gal(b1-4)GlcNAc(b1-3)Gal(b1-4)GlcNAc(b1-6)]Man(a1-6)[GlcNAc(b1-3)Gal(b1-4)GlcNAc(b1-3)Gal(b1-4)GlcNAc(b1-3)Gal(b1-4)GlcNAc(b1-2)Man(a1-3)]Man(b1-4)GlcNAc(b1-4)[Fuc(a1-6)]GlcNAc
How it was run: as §1

[33] = biological target: GlcNAc(b1-3)Gal(b1-4)GlcNAc(b1-3)Gal(b1-4)GlcNAc(b1-3)Gal(b1-4)GlcNAc(b1-3)Gal(b1-4)GlcNAc(b1-2)Man(a1-3)[GlcNAc(b1-3)Gal(b1-4)GlcNAc(b1-3)Gal(b1-4)GlcNAc(b1-3)Gal(b1-4)GlcNAc(b1-3)Gal(b1-4)GlcNAc(b1-2)Man(a1-6)]Man(b1-4)GlcNAc(b1-4)GlcNAc
How it was run: as §1

[34] = biological target: GlcNAc(b1-3)Gal(b1-4)GlcNAc(b1-3)Gal(b1-4)GlcNAc(b1-3)Gal(b1-4)GlcNAc(b1-3)Gal(b1-4)GlcNAc(b1-2)Man(a1-3)[GlcNAc(b1-3)Gal(b1-4)GlcNAc(b1-3)Gal(b1-4)GlcNAc(b1-3)Gal(b1-4)GlcNAc(b1-3)Gal(b1-4)GlcNAc(b1-2)Man(a1-6)]Man(b1-4)GlcNAc(b1-4)[Fuc(a1-6)]GlcNAc
How it was run: as §1

[35] = biological target: GlcNAc(b1-3)Gal(b1-4)GlcNAc(b1-3)Gal(b1-4)GlcNAc(b1-3)Gal(b1-4)GlcNAc(b1-3)Gal(b1-4)GlcNAc(b1-2)[GlcNAc(b1-3)Gal(b1-4)GlcNAc(b1-3)Gal(b1-4)GlcNAc(b1-3)Gal(b1-4)GlcNAc(b1-3)Gal(b1-4)GlcNAc(b1-6)]Man(a1-6)[GlcNAc(b1-3)Gal(b1-4)GlcNAc(b1-3)Gal(b1-4)GlcNAc(b1-3)Gal(b1-4)GlcNAc(b1-3)Gal(b1-4)GlcNAc(b1-2)Man(a1-3)]Man(b1-4)GlcNAc(b1-4)[Fuc(a1-6)]GlcNAc
How it was run: as §1

B1: HopZSSI-T (Helicobacter pylori), B5Z6D0 (protein)
chain: MGSSHHHHHHSSGLVPRGSHMENLYFQGEDNGFFISAGYQIGEAAQMVKNTGELKKLSDTYENLSNLLTNFNNLNQAVTNASSPSEINAAIDNLKANTQGLTGEKTNSPAYQAVYLALNAAVGLWNVIAYNVQCGPGNSSQQSVTFEGQPGHNSSSINCNLTGYNNGVSGPLSIDNFKQLNQAYQVLQQALKQGVPVLNNTNQKIEVKVTTQTNGQSSKETTTTTTTNDAQTLLQEASKMIDVLTTNCPWVNHNPGQNGGAPWGLIRQECVSGFATEFSAVTSMIKNAQEIVTQAQSLNANQNNQNAPQDFNPYTSADRAFAQNMLNHAQAQAKILELADQMKKDLNTIPSQFITNYLAACRIDGTTPSQGVTNNTWGAGCAYVEETITALNNSLAHFGTQAEQIKQSELLARTILDFRGSLSTLNSTYNSITTTASNTPNSPFLKNLISQSTNPNNPGGLQAVYQVNQSAYSQLLSATQELGHNPFRRIGLISSQT
- glycan array binding signal (z-score) [1]: -0.245
- glycan array binding signal (z-score) [2]: -0.575
- glycan array binding signal (z-score) [3]: 0.109
- glycan array binding signal (z-score) [4]: -0.199
- glycan array binding signal (z-score) [5]: -0.849
- glycan array binding signal (z-score) [6]: -0.165
- glycan array binding signal (z-score) [7]: 0.594
- glycan array binding signal (z-score) [8]: -0.463
- glycan array binding signal (z-score) [9]: -0.807
- glycan array binding signal (z-score) [10]: -0.072
- glycan array binding signal (z-score) [11]: 0.081
- glycan array binding signal (z-score) [12]: -0.234
- glycan array binding signal (z-score) [13]: -0.969
- glycan array binding signal (z-score) [14]: -0.762
- glycan array binding signal (z-score) [15]: -0.116
- glycan array binding signal (z-score) [16]: -0.284
- glycan array binding signal (z-score) [17]: -0.83
- glycan array binding signal (z-score) [18]: -0.316
- glycan array binding signal (z-score) [19]: 0.729
- glycan array binding signal (z-score) [20]: 1.05
- glycan array binding signal (z-score) (GlcNAc(b1-3)Fuc): -0.424
- glycan array binding signal (z-score) (GlcNAc(b1-3)Gal): 0.472
- glycan array binding signal (z-score) [21]: -0.208
- glycan array binding signal (z-score) (GlcNAc(b1-3)Gal(b1-4)Glc): 0.528
- glycan array binding signal (z-score) [22]: -0.706
- glycan array binding signal (z-score) [23]: -0.171
- glycan array binding signal (z-score) [24]: 0.195
- glycan array binding signal (z-score) [25]: 0.126
- glycan array binding signal (z-score) [26]: -0.437
- glycan array binding signal (z-score) [27]: 1.48
- glycan array binding signal (z-score) [28]: 0.471
- glycan array binding signal (z-score) [29]: -0.212
- glycan array binding signal (z-score) [30]: 0.513
- glycan array binding signal (z-score) [31]: 1.5
- glycan array binding signal (z-score) [32]: 1.12
- glycan array binding signal (z-score) [33]: 0.076
- glycan array binding signal (z-score) [34]: 0.279
- glycan array binding signal (z-score) [35]: 0.43
